PubChem BioAssay AID1259308 | NCATS | 2017
This is a random part of about 59,000 reagents tested. About 1,510 of them (2.6%) count as active. 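Calls use total luciferase alone and ignore viability, so some active siRNAs may act by altering cell number.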 The numbers tell different reagents against one gene apart. Not all columns of the deposit are shown. No sequences are given here.

- Aim: 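Knock-downs that increase output of a recombinant reporter protein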 (primary screen)
- Cells: human HEK293 embryonic kidney cells stably expressing firefly luciferase (HEK-CMV-Luc2-Hygro)
- Knock-down reagent: single siRNA against human genes, 0.8 pmol siRNA per well
- Time to read-out: 72 h
- Read-out: 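Reporter luminescence and viable-cell signal on separate replicate plates, given as percent of non-targeting control and median/MAD z-scores, plus per-cell luciferase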
- Scale: total luciferase, z-score: higher = more reporter protein produced
- Hit rule: 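An siRNA counts as active if its total luciferase robust z-score exceeds 3; genes with two or more such siRNAs out of three were retested with fresh siRNAs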
- Meaning of the calls: active = raised luciferase; inactive = no rise

total luciferase, z-score, by gene and reagent
OR10A7: #1 -0.601 inactive; #2 -0.499 inactive; #3 -0.15 inactive
S1PR1: #1 0.497 inactive; #2 0.93 inactive; #3 -0.356 inactive
SIAH3: #1 2.22 inactive; #2 0.228 inactive; #3 -0.314 inactive
DMP1: #1 0.274 inactive; #2 -1.8 inactive; #3 0.178 inactive
CYP2C9: #1 -0.231 inactive; #2 -0.392 inactive; #3 -0.136 inactive
NPC1: #1 -1.17 inactive; #2 0.45 inactive; #3 0.506 inactive
OR4K2: #1 6.74 active; #2 0.256 inactive; #3 -0.029 inactive
LINC02210: #1 0.332 inactive; #2 0.32 inactive; #3 1.28 inactive; #4 0.0541 inactive; #5 0.18 inactive; #6 0.0337 inactive
ARHGEF5: #1 1.47 inactive; #2 -0.699 inactive; #3 -1.1 inactive
KCTD21: #1 -0.556 inactive; #2 0.754 inactive; #3 0.644 inactive
CLN3: #1 1.72 inactive; #2 -1.86 inactive; #3 -0.314 inactive
C19orf25: #1 0.567 inactive; #2 1.17 inactive; #3 0.234 inactive
PTGFR: #1 -0.0906 inactive; #2 -2.07 inactive; #3 -1.01 inactive
PPM1D: #1 0.348 inactive; #2 -1.13 inactive; #3 -0.85 inactive
PRKAR2A: #1 -0.977 inactive; #2 0.261 inactive; #3 -0.0553 inactive
DHPS: #1 1.01 inactive; #2 -1.05 inactive; #3 0.247 inactive
VRK2: #1 -0.324 inactive; #2 0.214 inactive; #3 -0.79 inactive
AJM1: #1 0.608 inactive; #2 0.545 inactive; #3 -1.9 inactive
RPS6KA2: #1 2.59 inactive; #2 -0.0875 inactive; #3 -2.09 inactive
ESPNL: #1 -0.454 inactive; #2 -0.348 inactive; #3 -0.623 inactive
TMIE: #1 -1.32 inactive; #2 -1.19 inactive; #3 -0.234 inactive
TTC19: #1 1.15 inactive; #2 1.63 inactive; #3 1.82 inactive
DSG2: #1 0.367 inactive; #2 -0.723 inactive; #3 0.28 inactive
RBL2: #1 -0.0042 inactive; #2 -0.25 inactive; #3 0.0156 inactive

Ordered by “total luciferase, z-score” (ascending): some entries from above.
gene	reagent	total luciferase, z-score	Outcome
AJM1	3	-1.9	inactive
DHPS	2	-1.05	inactive
VRK2	3	-0.79	inactive
VRK2	1	-0.324	inactive
VRK2	2	0.214	inactive
DHPS	3	0.247	inactive
AJM1	2	0.545	inactive
AJM1	1	0.608	inactive
RPS6KA2	1	2.59	inactive
